The text below walks through data of patent publication US20210395361A1 (Alector, published 2021).

Holding throughout (test): ELISA on arrays of linear Siglec-5 peptides
Test [1] addresses T1, Siglec-5 peptide … (human).
T1 sequence (peptide): LSWFQGSPALN

Test [2] deals with T2, Siglec-5 peptide … (human).
T2 sequence (peptide): PCSFSYPWRSWYSS
This is another data set of the same source.

Test [3] addresses T3, Siglec-5 peptide … (human).
T3 sequence (peptide): ITIFRNGIALE
This is another data set of the same source.

Test [4] concerns the target T4, Siglec-5 peptide … (human).
T4 sequence (peptide): QTITIFRNGIALEILQNTS
This is another data set of the same source.

Results are given in words; binding and its absence hold for the method and conditions named. Some results given as binding are weak or reduced against the parent protein; the word gives no strength.

B1: S5-202 (antibody, V domains shown)
VH: QAYLQQSGPGLVAPSQSLSITCTVSGLSLTSYGVSWVRQPPGKGLEWLGVIWGDGSTNYHSALISRLSISKDNSKSQVFLKLNSLQTDDTATYYCAKPGAFYYGSRYYWYFDVWGTGTTVTVSS
VL: DIQMTQAHKVMSTSVGDRVSITCKASQDVSTAVAWYQQKPGQSPKLLIYSASYRYTGVPDRFTGSGSGTDFTFTISSVQAEDLAVYYCQQHYSPPPTFGGGTRREIK
notes: Mouse-derived variable domains; expressed in mammalian cells as full antibody; also called S5-PN202
For the molecule B1, the binding result in test [1] is given as “binds”.

B2: Antibody 8A1 (antibody, V domains shown)
VH: EIQLQQSGPELVKPGASVKVSCKASDYAFTSYNIYWVKQSHGKSLEWIGYIDPYNGGTSYNQTFKGKATLTVDKSSSTAYMHLNSLTSEDSAVYYCAMKVGYEAMDYWGQGTSVTVSS
VL: DIVMTQSQKFMSTSVGDRVSVTCKASQNVGTYVAWYQQKPGQSPKALIYSASYRYSGVPDRFTGSGSGTDFTLNISNVQSEDLAEYFCQQFNSYPYTFGGGTKLEIK
B2: in test [2], the binding entry is recorded as “binds”.

B3: S5-G-10 (antibody, V domains shown)
VH: QAYLQQSGAELVKPGASVKLSCKASGYIFTEYTIHWVKQRSGQGLEWIGWFYPGSGSIKYNEKFKDKATLTADKSSSTVYMELSRLTSEDSAVYFCATHERAAQAAWSAYWGQGTLVTVSA
VL: DVQMNQSPASLSASVGETVTITCRASGNIHNYLAWYQQKQGKSPQLLVYNAKTLTDGVPSRFSGSGSGTQYSLKINTLQPEDFGSYYCQHFWSTPYTFGGGTKLEMK
notes: Mouse-derived variable domains; expressed in mammalian cells as full antibody; hIgG1 isotype control
With B3, the binding entry in test [3] is “binds”.

B4: S5-G-07 (antibody, V domains shown)
VH: QAYLQQSGAELARPGASVKMSCKASGYTFSSYTMYWVKQRPGQGLEWIGYINPSSGYTEYNQKFKDKATLTADKSSSTAYMQLISLTSEDSAVYYCARSDSKGDYWGQGTTLTVSS
VL: DVVMTQSPSSLSASLGERVSLTCRASQDIGNSLNWLQQEPDGTIKRLISATSSLDSGVPKRFSGSRSGSDYSLTISSLESEDFVDYYCLQYASSPLTFGAGTKLELK
notes: Mouse-derived variable domains; expressed in mammalian cells as full antibody; hIgG1 isotype control; also called SG-5-07
In the case of B4, in test [4], the binding entry was “binds”.
